No constants are given. Whether binding was seen depends on the method and setting. Some entries that bind do so weakly or less than the wild type. Where a sequence is shown, tags or fusion partners need not be part of it.
Target: DLD C484A, Myc-DDK tagged (human) (UniProt P09622)
Assay: native gel or EMSA; Blue native PAGE (NativePAGE Novex Bis-Tris) of 30 ug whole cell lysates of transfected HEK293T cells (lysis buffer with 1% lauryl maltoside, pH 7.2), native immunoblot; monomer and dimer of DLD

B1: DLD C484A, Myc-DDK tagged (enzyme, UniProt P09622 36-509)
chain: ADQPIDADVTVIGSGPGGYVAAIKAAQLGFKTVCIEKNETLGGTCLNVGCIPSKALLNNSHYYHMAHGKDFASRGIEMSEVRLNLDKMMEQKSTAVKALTGGIAHLFKQNKVVHVNGYGKITGKNQVTATKADGGTQVIDTKNILIATGSEVTPFPGITIDEDTIVSSTGALSLKKVPEKMVVIGAGVIGVELGSVWQRLGADVTAVEFLGHVGGVGIDMEISKNFQRILQKQGFKFKLNTKVTGATKKSDGKIDVSIEAASGGKAEVITCDVLLVCIGRRPFTKNLGLEELGIELDPRGRIPVNTRFQTKIPNIYAIGDVVAGPMLAHKAEDEGIICVEGMAGGAVHIDYNCVPSVIYTHPEVAWVGKSEEQLKEEGIEYKVGKFPFAANSRAKTNADTDGMVKILGQKSTDRVLGAHILGPGAGEMVNEAALALEYGASCEDIARVAHAHPTLSEAFREANLAASFGKSINF
- binding: binds

Source: PMC10444860
